# Experimental data: PubChem BioAssay AID624297 (National Center for Advancing Translational Sciences (NCATS), 2012)
# The whole screen tested about 340,000 compounds, of which about 6,200 (1.8%) were called active. Inconclusive means that the source gave no clear call. Such entries were picked first, then a sample of the others. Calls follow the shape of the dose curve; as a rule, active = well fitted activation curve with a large enough effect; inconclusive = small, poorly fitted or top-dose-only effect; inactive = no such curve, though single readings can be large or run the other way. A potency beside an inconclusive call is a rough fit, not a confirmed value.
# Assay: A quantitative high throughput screen for small molecules that induce DNA re-replication in SW480 colon adenocarcinoma cells. Also: nearly all actives have a fitted effect of over 55% in size. As to re-replication activation: % of control where 0% means no effect.
# Settings: Hoechst DNA content imaging, 48 h; re-replication activation: at 46.1 µM (top of the series)
# Outline: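 Compounds, transferred as 23 nL by pin tool, were incubated with cells for 48 hr; DNA content per nucleus was then quantified by Hoechst staining and fluorescence plate imaging.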
# Potency is read from the fitted curve at half-maximal effect.
SMILES,Potency,re-replication activation
Cc1sc2nc(CN(C(=O)NCc3ccccc3)C3CCCC3)[nH]c(=O)c2c1C,"inconclusive: 29.1 µM [activator, single point]",
CCc1ccc(CNCCNC(=O)c2ccco2)cc1,"inconclusive: 29.1 µM [activator, single point]",
O=C(CSc1ccccc1C(=O)O)NC12CC3CC(CC(C3)C1)C2,inactive,
OCc1ccnc2c(O)cccc12,active: 1.16 µM,
COc1cc(-c2noc(C)c2/C=C/c2ccc(C(=O)O)cc2)cc(OC)c1OC,"inconclusive: 18.4 µM [activator, single point]",
Cc1nnc(SCC(=O)Nc2sccc2C(N)=O)s1,"inconclusive: 29.1 µM [activator, single point]",
COCCn1c(C)cc(C(=O)COC(=O)Cc2n[nH]c(=O)c3ccccc23)c1C,"inconclusive: 6.51 µM [activator, partial curve, poor fit]",
Cc1ccc(S(=O)(=O)N2CCCC(C(=O)NCCc3ccccc3)C2)cc1 (centres undefined),"inconclusive: 25.9 µM [activator, partial curve, poor fit]",
CC1(C)Cc2c(C#N)c(SCC(=O)O)nc(N3CCOCC3)c2CO1,"inconclusive: 6.51 µM [activator, single point]",
O=c1c2cc(N3CCOCC3)ccc2[nH]c(=S)n1Cc1ccccc1Cl,"inconclusive: 0.116 µM [activator, full curve, poor fit]",
O=C1NC(=O)C(c2cn(-c3ccccc3)nc2-c2ccc(F)cc2)N1 (centres undefined),"inconclusive: 29.1 µM [activator, single point]",
Clc1cccc(-c2cc3nc4c(c(NCc5ccco5)n3n2)CCCC4)c1,"inconclusive: 20.6 µM [activator, single point]",
CN(CC(=O)Nc1ccccc1C(F)(F)F)C(=O)COc1ccccc1Cc1ccccc1,"inconclusive: 20.6 µM [activator, single point]",
S=c1nc[nH]c2c1ncn2C1CCCC1,inactive,
CCOc1cc(C)c(S(=O)(=O)NCCCn2ccnc2)cc1C,inactive,
Cc1cc(C)c(S(=O)(=O)Nc2ccc(Cl)cn2)c(C)c1,inactive,
C=CCc1c(N(CC)CC)nc(C)[nH]c1=O,"inconclusive: 25.9 µM [activator, single point]",
COc1cc(OC)c(OC)cc1CN1CCN(Cc2ccc(SC)cc2)CC1,inactive,
CCOC(=O)C1CCN(C(=O)C(CC)c2ccccc2)CC1 (centres undefined),active: 18.4 µM,
COc1ccc(CN(C)Cc2cc(=O)oc3cc(C)c(C(C)C)cc23)cc1OC,"inconclusive: 20.6 µM [activator, single point]",
CCc1ccc(NC(=O)N(C2CCC(C)CC2)C2CCN(C(C)=O)CC2)cc1 (centres undefined),"inconclusive: 29.1 µM [activator, single point]",
Cc1c(C)c2ccc(OCC(=O)NCCc3c[nH]c4ccccc34)c(C)c2oc1=O,"inconclusive: 20.6 µM [activator, single point]",
CN(C)S(=O)(=O)c1ccc(N2CCCC2)c(C(=O)Nc2nc3ccccc3s2)c1,"inconclusive: 23.1 µM [activator, single point]",

# As entered above:
# Entry for Cc1cc(C)c(S(=O)(=O)Nc2ccc(Cl)cn2)c(C)c1 under Potency: inactive
# Entry for O=C(CSc1ccccc1C(=O)O)NC12CC3CC(CC(C3)C1)C2 under Potency: inactive
# Entry for O=C1NC(=O)C(c2cn(-c3ccccc3)nc2-c2ccc(F)cc2)N1 (centres undefined) under Potency: inconclusive: 29.1 µM [activator, single point]

# Following part:

SMILES,Potency,re-replication activation
O=C(O)CCCN1C(=O)/C(=C/c2ccncc2)SC1=S,inactive,
O=C(C(Sc1ccccc1)c1ccccc1)N1CCN(c2ccccc2)CC1 (centres undefined),"inconclusive: 29.1 µM [activator, single point]",
OCCOCCn1c(-c2ccccc2)nc(=S)c2c1CCCC2,"inconclusive: 16.4 µM [activator, partial curve, poor fit]",
CSC(=Nc1ccccc1)C(C#N)c1nc2ccccc2[nH]1 (centres undefined),inactive,
CCOC(=O)c1ccc(NNC(=O)CC)c([N+](=O)[O-])c1,inactive,
CC(=O)N[C@H]1[C@H](Oc2ccc3c(c2)CCC2C3CC[C@]3(C)C(=O)CCC23)O[C@H](CO)[C@@H](O)[C@@H]1O (some centres undefined),inactive,
Cc1[nH]nc2ncc(C(=O)c3cc(F)ccc3O)cc12,"inconclusive: 29.1 µM [activator, partial curve, poor fit]",
CCOc1cc(-c2nc(-c3ccccc3)c(-c3cc([N+](=O)[O-])ccc3C)[nH]2)ccc1O,inactive,
CCNc1nc(N)c(C(=C(C#N)C#N)c2ccccc2)s1,"inconclusive: 18.4 µM [activator, single point]",
Cc1ccc(S(=O)(=O)Nc2cc(C)c(O)c(Sc3n[nH]c(C)n3)c2)cc1,inactive,
CC(C)c1onc(C(=O)N2CCN(c3ccc(F)cc3)CC2)c1[N+](=O)[O-],active: 20.6 µM,
Cc1n[nH]c2c([N+](=O)[O-])c(=O)[nH]c(=O)n12,inactive,
COc1cccc(/C=C2/SC(=S)N(CCCC(=O)Nc3ccc(O)cc3)C2=O)c1,"inconclusive: 29.1 µM [activator, single point]",
CCOC(=O)c1ccc(NC(=O)c2sc3nc(N4CCOCC4)c4c(c3c2N)CCCC4)cc1,"inconclusive: 0.92 µM [activator, full curve, poor fit]",
COc1ccc(/C=C/C(O)=C2/C(=O)N(C)C3(C)CC2c2ccccc2O3)cc1 (centres undefined),"inconclusive: 18.4 µM [activator, single point]",
N#CC1=C(N)Oc2n[nH]c(-c3ccccc3)c2C1c1cccnc1 (centres undefined),inactive,
CCc1ccc(C(C)NC(=S)NC2CCCCC2)cc1 (centres undefined),"inconclusive: 29.1 µM [activator, single point]",
O=C(CSc1c2c(nc3cc(Cl)ccc13)CCCC2)NCCCN1CCOCC1,"inconclusive: 18.4 µM [activator, single point]",
CCCc1nc2c(sc3nc4c(cc32)COC(C)(C)C4)c(=O)n1Cc1ccco1,inactive,
Cc1cccc(C)c1Nc1c(-c2ccsc2)nc2ncccn12,inactive,
CCOc1ccc(NC(=O)Nc2c(C)n(C)n(-c3ccccc3)c2=O)cc1,"inconclusive: 16.4 µM [activator, partial curve, poor fit]",
Cc1ccc(N/C(N)=N/c2nc(C)cc(C)n2)cc1,"inconclusive: 32.6 µM [activator, partial curve, poor fit]",
O=c1[nH]c(=O)c2nc(-c3ccc(Cl)cc3)cnc2[nH]1,"inconclusive: 23.1 µM [activator, single point]",

SMILES,Potency,re-replication activation
CC(CC12CC3CC(CC(C3)C1)C2)NCc1ccccc1O (centres undefined),"inconclusive: 29.1 µM [activator, single point]",
Cc1cc(C)cc(NC2=NC3(CCCCC3)N=C(N)N2)c1,"inconclusive: 18.4 µM [activator, single point]",
COc1ccccc1C(=O)NCC(=O)N/N=C/c1cc(Br)ccc1OC(=O)/C=C\c1ccco1,"inconclusive: 4.61 µM [activator, full curve]",
Cc1ccc(OC(C)C(=O)N(Cc2cccs2)C2CCS(=O)(=O)C2)cc1C (centres undefined),"inconclusive: 29.1 µM [activator, single point]",
Cn1c(C(=O)OCC(=O)NCc2ccco2)cc2sccc21,"inconclusive: 20.6 µM [activator, partial curve, poor fit]",
N#CCCn1nc(-c2ccc(Cl)cc2)cc1Nc1ccccc1NC(=O)C(F)(F)F,inactive,
CC1(C)C2CC[C@]3(C)C(CC=C4[C@@H]5C[C@@](C)(CO)[C@@H](O)C[C@]5(C(=O)O)CC[C@]43C)[C@@]2(C)CC[C@@H]1O (some centres undefined),inactive,
CCN(C[C@H]1N[C@@](Cc2ccccc2)(C(=O)OC)[C@H]2C(=O)N(Cc3ccccc3)C(=O)[C@@H]12)C(=O)COc1ccccc1,"inconclusive: 20.6 µM [activator, partial curve, poor fit]",
CCc1nnc2n1N=C(c1ccc(OC)cc1)CS2,"inconclusive: 29.1 µM [activator, single point]",
COc1cc(OC)c(NC2=CC(=O)C(=O)c3ccccc32)cc1Cl,"inconclusive: 0.82 µM [activator, full curve, poor fit]",
COc1cccc2sc(N3CCN(C(=O)c4ccc([N+](=O)[O-])o4)CC3)nc12,"inconclusive: 35.5 µM [activator, single point]",
Oc1ccccc1-c1csc(-c2ccccc2)n1,"inconclusive: 0.92 µM [activator, partial curve, poor fit]",
COc1cc(O)cc(O)c1C(=O)/C=C/c1ccccc1,"inconclusive: 25.9 µM [activator, partial curve, poor fit]",
Cc1cc(C)cc(NC(=O)Nc2ccc(-n3ccc(C(F)(F)F)n3)cc2)c1,"inconclusive: 29.1 µM [activator, single point]",
CCOC(=O)CC(NC(=O)c1cc2cccc(OC)c2oc1=O)c1ccc(OC)cc1 (centres undefined),inactive,
CC(=O)Nc1ccc(C(=O)NNS(=O)(=O)c2ccc(C)cc2)cc1,active: 4.11 µM,
CSc1ccccc1C(=O)NC1CCSc2ccccc21 (centres undefined),"inconclusive: 29.1 µM [activator, single point]",
Cc1ccc(CNC(=O)c2ccc3c(=O)c(O)c(-c4ccc(C)cc4)[nH]c3c2)cc1,"inconclusive: 18.4 µM [activator, single point]",
Cc1ccc(NC(=O)c2ccc3c(c2)CCN3S(C)(=O)=O)cc1C,"inconclusive: 29.1 µM [activator, single point]",
Nc1nc2n(n1)C(c1ccco1)CC(c1ccc(Cl)cc1Cl)N2 (centres undefined),,inconclusive: 322% [activator]
CCN(c1ccccc1)S(=O)(=O)c1cccc(C(=O)NCc2ccncc2)c1,inactive,
Cc1ccc(CNC(=O)c2ccc(C)c(S(=O)(=O)N3CCCCC3)c2)cc1,inactive,
O=C1C[C@@H]2c3c(cccc3CN1Cc1ccc(Cl)cc1)C[C@@H](O)[C@H]2O,inactive,
